Experimental data: article PMC12670160, “A drug-repurposing screen of FDA- and EMA-approved drugs identifies two NF-κB inhibitors active against eumycetoma” (Journal of Antimicrobial Chemotherapy, 2025)
Where a name gives a salt, the structure may show the parent alone. Read-outs that look alike come from different tables or passages of the source. In all, about 5,300 compounds went through this assay and about 130 (2.5%) showed an effect of 50% or more. The list shows a part of the results. Peptide text beside a SMILES is read from it. * marks the point of attachment. Cbz = O=C(OCc1ccccc1)*

Test system: M. mycetomatis strain mm55
Conditions: primary screen, metabolic activity vs growth control, 96 h, 2 µM, inhibitor

Compound	% viability	% viability (Madurella mycetomatis metabolic activity at 2µM (%))
Fc1ccc(-c2nc3n(c2-c2ccncc2)CCS3)cc1 [ONC0000111, skf86002]	90.99%	–
CCC[C@H](N[C@@H](C)C(=O)N1[C@H](C(=O)O)C[C@@H]2CCCC[C@@H]21)C(=O)OCC [ONC0004265, perindopril erbumine]	73.43%	–
Cn1nnnc1SCC1=C(C(=O)O)N2C(=O)[C@@H](NC(=O)[C@H](O)c3ccccc3)[C@H]2SC1 [ONC0005600, cefamandole]	70.73%	–
Cn1ncc(Cl)c1-c1cc(C(=O)N[C@H](CN)Cc2ccc(F)c(F)c2)oc1Cl [ONC0001786, uprosertib]	116.1%	–
CCCCNNC(=O)c1ccc(Br)cc1 [ONC0003096, uf010]	92.32%	–
N#Cc1c(N)nc(SCc2csc(-c3ccc(Cl)cc3)n2)c(C#N)c1-c1ccc(OCCO)cc1 [ONC0002037, capadenoson]	95.6%	–
CC1(C)OC(=O)NC1=O [ONC0000704, dimethadione]	116.2%	–
On1ncc(C2CCNCC2)c1-c1cccc(-c2ccccc2)c1 [ONC0002501, php501 trifluoroacetate]	45.31%	–
C[C@H](Nc1ncnc2[nH]cnc12)c1nc2ccc(F)cc2c(=O)n1-c1ccccc1 [ONC0001064, acalisib]	63.52%	–
CN(C)c1ccc(-c2nc3c(N4CCN(CC(=O)Nc5nccs5)CC4)c(Cl)cnc3[nH]2)cc1 [ONC0004963, cct129202]	95.03%	–
Cc1ncc(CSSCc2cnc(C)c(O)c2CO)c(CO)c1O [ONC0003982, pyritinol]	71.7%	–
CC(C)(C#N)c1ccc(N2C(=O)OCc3cnc4ccc(-c5cnc6ccccc6c5)cc4c32)cc1 [ONC0004523, etp46464]	59.45%	–
O=C(O)[C@H](Cc1ccc(Nc2nccc3ccncc23)cc1)NC1=C(Br)C(=O)C12CCCCC2 [ONC0000960, zaurategrast]	60.06%	–
CCN(CC)Cc1ccc2cc(COC(=O)Nc3ccc(C(=O)NO)cc3)ccc2c1 [ONC0004762, itf2357 givinostat]	92.61%	–
CCOC(=O)c1ccc(OCCC2CCN(c3ccc(C)nn3)CC2)cc1 [ONC0001128, pirodavir]	72%	–
CCOC(=O)[C@H](Cc1ccc([N+](=O)[O-])cc1)NC(=O)c1ccccc1 [ONC0001444, sb297006]	60.86%	–
CC(C)C[C@@H](C=O)NC(=O)[C@H](CC(C)C)NC(=O)[C@H](CC(C)C)NC(=O)OCc1ccccc1 [ONC0005043, mg132] (Cbz-Leu-Leu-Leu-aldehyde)	69.11%	–
Fc1ccccc1-c1nc2ccn(Cc3ccc(-c4ccc(C(F)(F)F)cc4C(F)(F)F)nn3)cc-2n1 [ONC0000793, tegobuvir]	88.73%	–
Oc1cccc(Nc2ccc(Nc3cccc(O)c3)nn2)c1 [ONC0002962, 363hydroxyphenylaminopyridazin3ylaminophenol]	67.52%	–
CCN(CC)CCOc1ccc(Cc2ccccc2)cc1 [ONC0000853, dppe]	85.58%	–

Compound	% viability	% viability (Madurella mycetomatis metabolic activity at 2µM (%))
O=c1c(O)c(-c2cc(O)c(O)c(O)c2)oc2cc(O)cc(O)c12 [ONC0005243, myricetin cannabiscetin]	113.8%	–
COCc1nnc(N2CC(Oc3ccc(F)cc3Cl)C2)n1-c1ccc(OC)nc1 [ONC0002476, cligosiban]	70.11%	–
c1ccc(C(NCCNC(c2ccccc2)c2ccccc2)c2ccccc2)cc1 [ONC0003527, amn082]	180.9%	–
COc1ccc(OC)c(CN(C(C)=O)c2cc(F)ccc2Oc2ccccc2)c1 [ONC0001117, daa1106]	88.28%	–
CCCCCCCCCCCCCCCC(=O)OCCC1CCN(CCCN2c3ccccc3Sc3ccc(S(=O)(=O)N(C)C)cc32)CC1 [ONC0005423, pipotiazinepalmitate]	69.49%	–
Cc1ccc(S(=O)(=O)NC(=O)NN2CC3CCCC3C2)cc1 (stereo not shown) [ONC0002433, gliclazide]	117.1%	–
CCC(C)C(C(=O)OCC[N+](C)(CC)CC)c1ccccc1 (stereo not shown) [ONC0002162, valethamate]	73.33%	–
CN(C)Cc1cccc(N/C(=C2\C(=O)Nc3cc(C(=O)N(C)C)ccc32)c2ccccc2)c1 [ONC0002568, bix02189]	85.62%	–
CCCC[C@@H](C=O)NC(=O)[C@H](CC(C)C)NC(=O)OCc1ccccc1 [ONC0000877, calpeptin]	53.62%	–
Cc1ccc(NC(=O)c2ccc(CN3CCN(C)CC3)cc2)cc1Nc1nc(-c2cccnc2)cs1 [ONC0004682, masitinib ab1010]	91.68%	–
O=C1C=Cc2cc(Br)ccc2C1=O [ONC0003739, bonaphthone]	107.6%	–
CSCC[C@H](N)C(=O)O [ONC0005517, lmethionine]	–	102.8%
CCn1cc(C(=O)O)c(=O)c2cnc(N3CCNCC3)nc21 [ONC0000661, pipemidic acid]	96.65%	–
CCC(N)C(O)c1ccc(O)c(O)c1 (stereo not shown) [ONC0002281, ethylnorepinephrine hydrochloride]	92.57%	–
NCCS(=O)(=O)O [ONC0002769, taurine]	121.9%	–
COc1cc2nc(N3CCN(C(=O)c4ccco4)CC3)nc(N)c2cc1OC [ONC0000524, prazosin hydrochloride]	68.62%	–
C[C@@H](O[C@H]1OCCN(Cc2nc(O)n(P(=O)(O)O)n2)[C@H]1c1ccc(F)cc1)c1cc(C(F)(F)F)cc(C(F)(F)F)c1 [ONC0004322, fosaprepitant dimeglumine salt]	108.4%	–
CCCCS(=O)(=O)N[C@@H](Cc1ccc(OCCCCC2CCNCC2)cc1)C(=O)O [ONC0001987, tirofibanhcl monohydrate]	99.93%	–
CCCN(CCC)C1CCc2ccc(O)cc2C1 (stereo not shown) [ONC0002652, 7hydroxydpat]	61.59%	–
CCCCCCCC/C=C\CCCCCCCC(=O)N[C@@H](CO)Cc1ccc(O)cc1 [ONC0001522, omdm2]	134.2%	–

Arranged by molar mass (ascending): part of the list above
Compound	% viability	% viability (Madurella mycetomatis metabolic activity at 2µM (%))
O=c1c(O)c(-c2cc(O)c(O)c(O)c2)oc2cc(O)cc(O)c12 [ONC0005243, myricetin cannabiscetin]	113.8%	–
Cc1ccc(NC(=O)c2ccc(CN3CCN(C)CC3)cc2)cc1Nc1nc(-c2cccnc2)cs1 [ONC0004682, masitinib ab1010]	91.68%	–
C[C@@H](O[C@H]1OCCN(Cc2nc(O)n(P(=O)(O)O)n2)[C@H]1c1ccc(F)cc1)c1cc(C(F)(F)F)cc(C(F)(F)F)c1 [ONC0004322, fosaprepitant dimeglumine salt]	108.4%	–
